These are yes or no findings as the source states them, for the method shown. Binding seen in cells or lysates may run through a third protein. Here binding means that the protein was enriched with, or labelled near, the bait; the list need not be complete.
B1: GAB1 (protein, UniProt Q13480 1-694)
chain: MSGGEVVCSGWLRKSPPEKKLKRYAWKRRWFVLRSGRLTGDPDVLEYYKNDHAKKPIRIIDLNLCQQVDAGLTFNKKEFENSYIFDINTIDRIFYLVADSEEEMNKWVRCICDICGFNPTEEDPVKPPGSSLQAPADLPLAINTAPPSTQADSSSATLPPPYQLINVPPHLETLGIQEDPQDYLLLINCQSKKPEPTRTHADSAKSTSSETDCNDNVPSHKNPASSQSKHGMNGFFQQQMIYDSPPSRAPSASVDSSLYNLPRSYSHDVLPKVSPSSTEADGELYVFNTPSGTSSVETQMRHVSISYDIPPTPGNTYQIPRTFPEGTLGQTSKLDTIPDIPPPRPPKPHPAHDRSPVETCSIPRTASDTDSSYCIPTAGMSPSRSNTISTVDLNKLRKDASSQDCYDIPRAFPSDRSSSLEGFHNHFKVKNVLTVGSVSSEELDENYVPMNPNSPPRQHSSSFTEPIQEANYVPMTPGTFDFSSFGMQVPPPAHMGFRSSPKTPPRRPVPVADCEPPPVDRNLKPDRKVKPAPLEIKPLPEWEELQAPVRSPITRSFARDSSRFPMSPRPDSVHSTTSSSDSHDSEENYVPMNPNLSSEDPNLFGSNSLDGGSSPMIKPKGDKQVEYLDLDLDSGKSTPPRKQKSSGSGSSVADERVDYVVVDQQKTLALKSTREAWTDGRQSTESETPAKSVK

Protein sequences, listed by entry. Tags and fused reporters are not part of them. Lines headed by an entry give the natural chain unless they say otherwise; changes in a name come on top. Residues count along the entry.
UniProt P27361: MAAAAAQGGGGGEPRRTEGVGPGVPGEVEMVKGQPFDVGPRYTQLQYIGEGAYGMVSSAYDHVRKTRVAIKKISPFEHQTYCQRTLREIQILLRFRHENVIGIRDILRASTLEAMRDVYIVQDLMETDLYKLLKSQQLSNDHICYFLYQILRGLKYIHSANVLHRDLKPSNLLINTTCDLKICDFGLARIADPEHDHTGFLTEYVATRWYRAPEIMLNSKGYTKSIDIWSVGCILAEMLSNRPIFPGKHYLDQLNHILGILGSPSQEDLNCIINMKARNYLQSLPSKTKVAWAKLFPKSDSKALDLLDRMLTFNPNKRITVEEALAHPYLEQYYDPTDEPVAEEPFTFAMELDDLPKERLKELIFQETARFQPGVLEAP
UniProt Q13586, residues 23-685: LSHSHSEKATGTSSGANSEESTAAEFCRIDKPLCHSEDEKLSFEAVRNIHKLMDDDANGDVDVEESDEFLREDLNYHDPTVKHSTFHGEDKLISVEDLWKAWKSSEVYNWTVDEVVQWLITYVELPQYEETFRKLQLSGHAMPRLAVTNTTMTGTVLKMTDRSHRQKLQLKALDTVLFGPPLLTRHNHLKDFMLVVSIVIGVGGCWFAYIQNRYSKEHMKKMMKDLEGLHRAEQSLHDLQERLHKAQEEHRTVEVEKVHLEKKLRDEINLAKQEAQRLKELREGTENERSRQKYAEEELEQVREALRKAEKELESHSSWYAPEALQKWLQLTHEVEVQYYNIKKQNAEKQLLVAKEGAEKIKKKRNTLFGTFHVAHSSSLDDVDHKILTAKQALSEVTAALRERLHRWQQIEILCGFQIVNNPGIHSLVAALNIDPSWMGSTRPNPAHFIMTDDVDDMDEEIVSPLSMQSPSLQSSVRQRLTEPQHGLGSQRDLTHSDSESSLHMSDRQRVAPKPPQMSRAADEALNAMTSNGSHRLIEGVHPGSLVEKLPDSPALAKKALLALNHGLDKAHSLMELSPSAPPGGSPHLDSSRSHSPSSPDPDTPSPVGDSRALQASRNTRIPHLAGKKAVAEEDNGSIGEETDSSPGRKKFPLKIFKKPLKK
UniProt Q09472: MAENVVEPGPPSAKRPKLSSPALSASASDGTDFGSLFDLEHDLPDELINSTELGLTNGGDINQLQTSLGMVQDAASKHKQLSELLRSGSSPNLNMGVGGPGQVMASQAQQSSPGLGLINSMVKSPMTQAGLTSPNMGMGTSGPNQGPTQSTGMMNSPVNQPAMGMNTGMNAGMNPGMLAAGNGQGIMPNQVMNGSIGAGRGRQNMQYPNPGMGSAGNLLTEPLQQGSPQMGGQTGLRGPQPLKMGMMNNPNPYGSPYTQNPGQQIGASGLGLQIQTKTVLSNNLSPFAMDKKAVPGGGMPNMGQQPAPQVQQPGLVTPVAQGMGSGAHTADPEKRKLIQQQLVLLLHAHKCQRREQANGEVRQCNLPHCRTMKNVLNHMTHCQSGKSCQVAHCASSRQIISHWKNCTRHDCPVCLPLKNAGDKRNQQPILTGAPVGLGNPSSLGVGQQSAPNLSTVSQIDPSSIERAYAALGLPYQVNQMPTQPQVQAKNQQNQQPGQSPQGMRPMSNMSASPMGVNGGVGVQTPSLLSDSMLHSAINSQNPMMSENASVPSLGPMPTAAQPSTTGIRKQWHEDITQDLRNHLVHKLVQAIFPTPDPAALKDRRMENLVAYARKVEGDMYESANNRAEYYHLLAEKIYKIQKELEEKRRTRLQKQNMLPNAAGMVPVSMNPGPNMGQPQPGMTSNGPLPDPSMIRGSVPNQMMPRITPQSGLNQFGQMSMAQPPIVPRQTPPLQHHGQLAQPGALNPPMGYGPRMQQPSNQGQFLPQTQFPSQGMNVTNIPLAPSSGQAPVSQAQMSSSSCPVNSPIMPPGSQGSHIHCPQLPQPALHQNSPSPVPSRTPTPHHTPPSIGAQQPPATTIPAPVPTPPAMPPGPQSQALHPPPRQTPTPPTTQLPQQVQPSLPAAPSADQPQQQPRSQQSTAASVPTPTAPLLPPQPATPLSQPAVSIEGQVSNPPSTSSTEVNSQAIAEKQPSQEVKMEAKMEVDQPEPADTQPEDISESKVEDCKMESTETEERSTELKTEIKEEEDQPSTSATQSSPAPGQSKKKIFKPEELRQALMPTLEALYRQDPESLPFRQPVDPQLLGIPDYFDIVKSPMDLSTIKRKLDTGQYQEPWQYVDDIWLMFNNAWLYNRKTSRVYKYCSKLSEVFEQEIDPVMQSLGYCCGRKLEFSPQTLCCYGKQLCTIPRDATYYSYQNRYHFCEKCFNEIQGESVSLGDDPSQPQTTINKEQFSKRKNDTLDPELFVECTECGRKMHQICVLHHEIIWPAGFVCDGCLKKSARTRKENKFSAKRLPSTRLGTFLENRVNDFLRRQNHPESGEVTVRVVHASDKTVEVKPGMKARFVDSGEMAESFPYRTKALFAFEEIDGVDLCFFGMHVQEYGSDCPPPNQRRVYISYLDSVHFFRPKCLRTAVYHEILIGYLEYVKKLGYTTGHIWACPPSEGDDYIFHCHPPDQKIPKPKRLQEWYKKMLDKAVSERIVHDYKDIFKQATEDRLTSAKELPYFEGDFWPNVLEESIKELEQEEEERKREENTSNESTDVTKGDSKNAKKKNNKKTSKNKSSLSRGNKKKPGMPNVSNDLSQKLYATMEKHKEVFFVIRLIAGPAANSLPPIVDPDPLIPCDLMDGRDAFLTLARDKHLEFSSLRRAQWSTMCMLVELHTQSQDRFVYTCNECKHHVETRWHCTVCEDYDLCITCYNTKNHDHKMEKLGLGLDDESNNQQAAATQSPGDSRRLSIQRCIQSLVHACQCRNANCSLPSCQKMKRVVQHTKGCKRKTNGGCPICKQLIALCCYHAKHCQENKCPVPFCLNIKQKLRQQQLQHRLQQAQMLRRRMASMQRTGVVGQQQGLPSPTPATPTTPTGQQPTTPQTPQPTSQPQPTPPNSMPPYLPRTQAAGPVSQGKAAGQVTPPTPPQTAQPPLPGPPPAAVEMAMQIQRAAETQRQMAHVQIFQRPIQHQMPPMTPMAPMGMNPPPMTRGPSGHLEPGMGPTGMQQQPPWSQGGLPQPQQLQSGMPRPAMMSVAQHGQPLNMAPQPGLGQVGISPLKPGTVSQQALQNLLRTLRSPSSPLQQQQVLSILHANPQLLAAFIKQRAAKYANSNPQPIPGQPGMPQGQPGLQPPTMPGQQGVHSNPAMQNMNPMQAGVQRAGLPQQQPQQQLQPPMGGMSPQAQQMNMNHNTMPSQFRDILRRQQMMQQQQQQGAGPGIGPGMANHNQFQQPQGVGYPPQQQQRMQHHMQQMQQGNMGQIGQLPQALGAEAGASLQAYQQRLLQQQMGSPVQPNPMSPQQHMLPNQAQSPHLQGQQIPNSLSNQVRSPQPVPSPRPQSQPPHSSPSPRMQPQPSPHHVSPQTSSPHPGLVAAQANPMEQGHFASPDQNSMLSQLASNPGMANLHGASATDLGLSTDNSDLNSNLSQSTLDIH
UniProt P05412: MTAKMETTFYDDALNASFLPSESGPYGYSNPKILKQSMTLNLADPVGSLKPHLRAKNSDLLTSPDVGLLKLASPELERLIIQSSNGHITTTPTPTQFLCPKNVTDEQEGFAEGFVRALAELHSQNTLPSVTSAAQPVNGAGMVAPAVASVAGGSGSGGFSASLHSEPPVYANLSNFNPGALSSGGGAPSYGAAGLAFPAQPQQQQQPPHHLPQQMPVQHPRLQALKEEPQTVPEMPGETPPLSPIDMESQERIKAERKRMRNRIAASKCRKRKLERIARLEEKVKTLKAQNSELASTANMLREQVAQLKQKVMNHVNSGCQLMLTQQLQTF

Tests used:
[1] = biological target: BirA*-ERK2 (ERK2 fused to the promiscuous R118G form of the biotin ligase BirA, Flag-tagged) (UniProt P28482); assay: proximity labelling; BioID in HEK293 cells transiently transfected with BirA*-ERK1, BirA*-ERK2 or BirA*-GFP (control); biotin 50 µM, 24 h; RIPA lysis, streptavidin-agarose, on-bead trypsin, MS; SAINT score >= 0.80, BFDR <= 0.05, Log2 FC >= 1; ERK1 and ERK2 results combined
[2] = biological target: BirA*-ERK1 (ERK1 fused to the promiscuous R118G form of the biotin ligase BirA, Flag-tagged) (UniProt P27361); assay: as above

Molecule | binding [1] | binding [2]
STIM1 (from UniProt Q13586 23-685) | binds | binds
EP300 (from UniProt Q09472 1-2414) | binds | binds
JUN (from UniProt P05412 1-331) | binds | binds
B1 | binds | binds
